# Measurements as given in patent publication US6448203B1, “Substituted aryluracils” (Bayer Aktiengesellschaft, priority 1997, dated 2002).
# Some entries share one result that the patent states for a list of compounds.
# Key:
# Alopecurus [1] = assay: Post-emergence test; assay type: in vivo; details: application rate of 250 glha, after three weeks, 0%=no effect, 100%=total destruction
# Alopecurus [2] = assay: Pre-emergence test; assay type: in vivo; details: application rate of 250 g/ha, after three weeks, 0%=no effect, 100%=total destruction
SMILES,"degree of damage to the plants (% damage), Alopecurus (Alopecurus [1])","degree of damage to the plants (% damage), Alopecurus (Alopecurus [2])"
"Cn1c(C(F)(F)F)cc(=O)n(-c2ccc(OCc3ccc(Cl)nc3)cc2F)c1=O [Preparation Example 2, 1-[2-fluoro4-(2-chloro-pyridin-5-yl-methoxy)-phenyl]-3-methyl4-trifluoromethyl-3,6-dihydro-2,6-dioxo-1 (2H)-pyrimidine]",80-90%,95-100%
Nn1c(C(F)(F)F)cc(=O)n(-c2ccc(OCc3ccc(Cl)nc3)cc2F)c1=O [compound 3],80-90%,95-100%
